# The other results are listed elsewhere or left out.
# B1: Mincle (Bos taurus) (protein)
# chain: MNSSTSPASQTERRCFSFQLFSWAIAGTSILLLSACFITRCVVTYSIFQLCDEKKFQPPGDSMELSCYNDGSGSVKNCCPLKWFHFQSSCYLFSPDTMSWRASLKNCSSMGAHLVVINTQEEQEFLYYTKPRKKEFYIGLTDQVTEGQWQWVDGTPFTKSLSFWDAGEPNNLVIVEDCATIRDSSNPRQNWNDVPCFFNMFRVCEMPERKI
# Experiments:
# Test in all cases: glycan array binding signal (z-score within array); higher = stronger binding
# Conditions in all cases: glycan notation: IUPAC condensed, linker removed
# [1] = molecular target: Man(a1-2)Man(a1-3)[Man(a1-2)Man(a1-6)]Man(a1-6)[Man(a1-2)Man(a1-2)Man(a1-3)]Man
# How it was run: (§1)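 Negative Z-scores can be read as non-binding. The Z-score is calculated within each array and then averaged across arrays of one protein sequence at different concentrations or buffers and across linkers. Arrays, 3228 in all, were curated from the Consortium for Functional Glycomics database and kept only where the protein sequence was available.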
# [2] = molecular target: Man(a1-2)Man(a1-3)[Man(a1-2)Man(a1-6)]Man(a1-6)[Man(a1-2)Man(a1-2)Man(a1-3)]Man(b1-4)GlcNAc(b1-4)GlcNAc
# How it was run: as §1
# [3] = molecular target: Man(a1-2)Man(a1-3)[Man(a1-6)]Man(a1-6)[Man(a1-2)Man(a1-3)]Man(b1-4)GlcNAc(b1-4)GlcNAc
# How it was run: as §1
# [4] = molecular target: Man(a1-2)Man(a1-6)[Man(a1-3)]Man(a1-6)[Man(a1-2)Man(a1-2)Man(a1-3)]Man
# How it was run: as §1
# [5] = molecular target: Man(a1-2)Man(a1-6)[Man(a1-3)]Man(a1-6)[Man(a1-2)Man(a1-2)Man(a1-3)]Man(b1-4)GlcNAc(b1-4)GlcNAc
# How it was run: as §1
# Man(a1-3)[Man(a1-6)]Man = molecular target: Man(a1-3)[Man(a1-6)]Man
# How it was run: as §1
# [6] = molecular target: Man(a1-3)[Man(a1-6)]Man(a1-6)[Man(a1-2)Man(a1-3)]Man(b1-4)GlcNAc(b1-4)GlcNAc
# How it was run: as §1
# [7] = molecular target: Man(a1-3)[Man(a1-6)]Man(a1-6)[Man(a1-3)]Man
# How it was run: as §1
# [8] = molecular target: Man(a1-3)[Man(a1-6)]Man(a1-6)[Man(a1-3)]Man(b1-4)GlcNAc(b1-4)GlcNAc
# How it was run: as §1
# [9] = molecular target: Man(a1-3)[Man(a1-6)]Man(b1-4)GlcNAc(b1-4)GlcNAc
# How it was run: as §1
# [10] = molecular target: Man(a1-3)[Man(a1-6)]Man(b1-4)GlcNAc(b1-4)[Fuc(a1-6)]GlcNAc
# How it was run: as §1
# Man(a1-6)Man = molecular target: Man(a1-6)Man
# How it was run: as §1
# Man(b1-4)GlcNAc = molecular target: Man(b1-4)GlcNAc
# How it was run: as §1
# MurNAc(b1-4)GlcNAc = molecular target: MurNAc(b1-4)GlcNAc
# How it was run: as §1
# Neu5Ac(a2-3)Gal = molecular target: Neu5Ac(a2-3)Gal
# How it was run: as §1
# [11] = molecular target: Neu5Ac(a2-3)Gal(b1-3)GalNAc
# How it was run: as §1
# [12] = molecular target: Neu5Ac(a2-3)Gal(b1-3)GalNAc(b1-3)Gal(a1-4)Gal(b1-4)Glc
# How it was run: as §1
# [13] = molecular target: Neu5Ac(a2-3)Gal(b1-3)GalNAc(b1-4)Gal(b1-4)Glc
# How it was run: as §1
# [14] = molecular target: Neu5Ac(a2-3)Gal(b1-3)GalNAc(b1-4)[Neu5Ac(a2-3)]Gal(b1-4)Glc
# How it was run: as §1
# [15] = molecular target: Neu5Ac(a2-3)Gal(b1-3)GalNAc(b1-4)[Neu5Ac(a2-8)Neu5Ac(a2-3)]Gal(b1-4)Glc
# How it was run: as §1
# [16] = molecular target: Neu5Ac(a2-3)Gal(b1-3)GalNAc6S
# How it was run: as §1
# [17] = molecular target: Neu5Ac(a2-3)Gal(b1-3)GlcNAc
# How it was run: as §1
# [18] = molecular target: Neu5Ac(a2-3)Gal(b1-3)GlcNAc(b1-2)Man
# How it was run: as §1
# [19] = molecular target: Neu5Ac(a2-3)Gal(b1-3)GlcNAc(b1-2)Man(a1-3)[GlcNAc(b1-4)][Neu5Ac(a2-3)Gal(b1-3)GlcNAc(b1-2)Man(a1-6)]Man(b1-4)GlcNAc(b1-4)GlcNAc
# How it was run: as §1
# [20] = molecular target: Neu5Ac(a2-3)Gal(b1-3)GlcNAc(b1-2)Man(a1-3)[Neu5Ac(a2-3)Gal(b1-3)GlcNAc(b1-2)Man(a1-6)]Man(b1-4)GlcNAc(b1-4)GlcNAc
# How it was run: as §1
# [21] = molecular target: Neu5Ac(a2-3)Gal(b1-3)GlcNAc(b1-2)[Neu5Ac(a2-3)Gal(b1-3)GlcNAc(b1-4)]Man(a1-6)[Neu5Ac(a2-3)Gal(b1-3)GlcNAc(b1-2)Man(a1-3)]Man(b1-4)GlcNAc(b1-4)GlcNAc
# How it was run: as §1
# [22] = molecular target: Neu5Ac(a2-3)Gal(b1-3)GlcNAc(b1-3)Gal(b1-3)GlcNAc
# How it was run: as §1
# [23] = molecular target: Neu5Ac(a2-3)Gal(b1-3)GlcNAc(b1-3)Gal(b1-4)GlcNAc
# How it was run: as §1
# [24] = molecular target: Neu5Ac(a2-3)Gal(b1-3)GlcNAc(b1-3)GalNAc
# How it was run: as §1
# [25] = molecular target: Neu5Ac(a2-3)Gal(b1-3)GlcNAc(b1-6)GalNAc
# How it was run: as §1
# [26] = molecular target: Neu5Ac(a2-3)Gal(b1-3)GlcNAc6S
# How it was run: as §1
# [27] = molecular target: Neu5Ac(a2-3)Gal(b1-3)[Fuc(a1-4)]GlcNAc
# How it was run: as §1
# [28] = molecular target: Neu5Ac(a2-3)Gal(b1-3)[Fuc(a1-4)]GlcNAc(b1-3)Gal(b1-3)[Fuc(a1-4)]GlcNAc
# How it was run: as §1
# [29] = molecular target: Neu5Ac(a2-3)Gal(b1-3)[Fuc(a1-4)]GlcNAc(b1-3)Gal(b1-4)[Fuc(a1-3)]GlcNAc
# How it was run: as §1
# [30] = molecular target: Neu5Ac(a2-3)Gal(b1-3)[GlcNAc(b1-6)]GalNAc
# How it was run: as §1
# [31] = molecular target: Neu5Ac(a2-3)Gal(b1-3)[Neu5Ac(a2-6)]GalNAc
# How it was run: as §1
# [32] = molecular target: Neu5Ac(a2-3)Gal(b1-3)[Neu5Ac(a2-6)]GlcNAc(b1-3)[Fuc(a1-3)[Gal(b1-4)]GlcNAc(b1-6)]Gal(b1-4)Glc
# How it was run: as §1
# [33] = molecular target: Neu5Ac(a2-3)Gal(b1-3)]Neu5Ac(a2-3)Gal(b1-4)]GlcNAc
# How it was run: as §1
binder,measurement,setting,value
B1,glycan array binding signal (z-score),[1],3.54
same,glycan array binding signal (z-score),[2],1.2
same,glycan array binding signal (z-score),[3],0.275
same,glycan array binding signal (z-score),[4],1.94
same,glycan array binding signal (z-score),[5],0.474
same,glycan array binding signal (z-score),Man(a1-3)[Man(a1-6)]Man,6.16
same,glycan array binding signal (z-score),[6],3.43
same,glycan array binding signal (z-score),[7],1.04
same,glycan array binding signal (z-score),[8],0.124
same,glycan array binding signal (z-score),[9],-0.164
same,glycan array binding signal (z-score),[10],0.039
same,glycan array binding signal (z-score),Man(a1-6)Man,-0.842
same,glycan array binding signal (z-score),Man(b1-4)GlcNAc,0.338
same,glycan array binding signal (z-score),MurNAc(b1-4)GlcNAc,-0.541
same,glycan array binding signal (z-score),Neu5Ac(a2-3)Gal,-1.05
same,glycan array binding signal (z-score),[11],-0.278
same,glycan array binding signal (z-score),[12],-0.361
same,glycan array binding signal (z-score),[13],-1.13
same,glycan array binding signal (z-score),[14],0.393
same,glycan array binding signal (z-score),[15],-1.38
same,glycan array binding signal (z-score),[16],-0.583
same,glycan array binding signal (z-score),[17],-0.043
same,glycan array binding signal (z-score),[18],-0.913
same,glycan array binding signal (z-score),[19],0.328
same,glycan array binding signal (z-score),[20],0.811
same,glycan array binding signal (z-score),[21],-0.268
same,glycan array binding signal (z-score),[22],-1.03
same,glycan array binding signal (z-score),[23],-0.331
same,glycan array binding signal (z-score),[24],-0.599
same,glycan array binding signal (z-score),[25],-0.473
same,glycan array binding signal (z-score),[26],1.11
same,glycan array binding signal (z-score),[27],0.299
same,glycan array binding signal (z-score),[28],-1.55
same,glycan array binding signal (z-score),[29],-0.451
same,glycan array binding signal (z-score),[30],-0.595
same,glycan array binding signal (z-score),[31],-0.943
same,glycan array binding signal (z-score),[32],0.667
same,glycan array binding signal (z-score),[33],-0.559

# For reference, part of the list above.
binder,measurement,setting,value
B1,glycan array binding signal (z-score),Neu5Ac(a2-3)Gal,-1.05
same,glycan array binding signal (z-score),[11],-0.278

# Reference: the supplement of paper PMC8728848
